Results reported in article doi:10.1101/2025.05.27.25328314.
These are yes or no findings as the source states them, for the method shown. Binding seen in cells or lysates may run through a third protein. Some entries that bind do so weakly or less than the wild type.

Chains of the proteins cited; added tags and fusions are not shown. Residues count along the entry.
UniProt Q9UBS5, residues 20-961: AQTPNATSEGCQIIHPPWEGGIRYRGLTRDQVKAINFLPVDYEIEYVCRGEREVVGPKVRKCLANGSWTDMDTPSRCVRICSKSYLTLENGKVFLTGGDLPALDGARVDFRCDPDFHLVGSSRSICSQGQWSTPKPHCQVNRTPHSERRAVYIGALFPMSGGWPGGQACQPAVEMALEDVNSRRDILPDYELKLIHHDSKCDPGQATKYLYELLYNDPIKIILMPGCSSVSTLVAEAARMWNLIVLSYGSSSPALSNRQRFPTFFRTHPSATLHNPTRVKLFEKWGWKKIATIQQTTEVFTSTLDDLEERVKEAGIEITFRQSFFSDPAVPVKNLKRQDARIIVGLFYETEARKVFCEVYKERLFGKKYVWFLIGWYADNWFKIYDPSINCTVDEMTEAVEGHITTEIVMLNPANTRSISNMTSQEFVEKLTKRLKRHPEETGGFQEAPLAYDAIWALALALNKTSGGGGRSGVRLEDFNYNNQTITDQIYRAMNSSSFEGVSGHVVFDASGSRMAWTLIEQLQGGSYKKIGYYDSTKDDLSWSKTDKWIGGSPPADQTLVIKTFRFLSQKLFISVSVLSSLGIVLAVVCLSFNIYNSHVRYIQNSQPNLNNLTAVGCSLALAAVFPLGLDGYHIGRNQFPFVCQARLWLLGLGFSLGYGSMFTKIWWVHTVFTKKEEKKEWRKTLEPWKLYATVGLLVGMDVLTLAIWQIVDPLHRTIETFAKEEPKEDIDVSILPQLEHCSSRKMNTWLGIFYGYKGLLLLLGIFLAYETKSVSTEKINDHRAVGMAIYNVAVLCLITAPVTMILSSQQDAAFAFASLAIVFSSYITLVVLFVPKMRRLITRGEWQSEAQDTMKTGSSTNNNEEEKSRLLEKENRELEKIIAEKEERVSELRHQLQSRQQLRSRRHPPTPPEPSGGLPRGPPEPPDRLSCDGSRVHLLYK

Biological target: T1, extracellular Ca2+-sensing receptor (CaSR) (human (endogenous in parathyroid tissue)) (UniProt P41180)
T1 sequence: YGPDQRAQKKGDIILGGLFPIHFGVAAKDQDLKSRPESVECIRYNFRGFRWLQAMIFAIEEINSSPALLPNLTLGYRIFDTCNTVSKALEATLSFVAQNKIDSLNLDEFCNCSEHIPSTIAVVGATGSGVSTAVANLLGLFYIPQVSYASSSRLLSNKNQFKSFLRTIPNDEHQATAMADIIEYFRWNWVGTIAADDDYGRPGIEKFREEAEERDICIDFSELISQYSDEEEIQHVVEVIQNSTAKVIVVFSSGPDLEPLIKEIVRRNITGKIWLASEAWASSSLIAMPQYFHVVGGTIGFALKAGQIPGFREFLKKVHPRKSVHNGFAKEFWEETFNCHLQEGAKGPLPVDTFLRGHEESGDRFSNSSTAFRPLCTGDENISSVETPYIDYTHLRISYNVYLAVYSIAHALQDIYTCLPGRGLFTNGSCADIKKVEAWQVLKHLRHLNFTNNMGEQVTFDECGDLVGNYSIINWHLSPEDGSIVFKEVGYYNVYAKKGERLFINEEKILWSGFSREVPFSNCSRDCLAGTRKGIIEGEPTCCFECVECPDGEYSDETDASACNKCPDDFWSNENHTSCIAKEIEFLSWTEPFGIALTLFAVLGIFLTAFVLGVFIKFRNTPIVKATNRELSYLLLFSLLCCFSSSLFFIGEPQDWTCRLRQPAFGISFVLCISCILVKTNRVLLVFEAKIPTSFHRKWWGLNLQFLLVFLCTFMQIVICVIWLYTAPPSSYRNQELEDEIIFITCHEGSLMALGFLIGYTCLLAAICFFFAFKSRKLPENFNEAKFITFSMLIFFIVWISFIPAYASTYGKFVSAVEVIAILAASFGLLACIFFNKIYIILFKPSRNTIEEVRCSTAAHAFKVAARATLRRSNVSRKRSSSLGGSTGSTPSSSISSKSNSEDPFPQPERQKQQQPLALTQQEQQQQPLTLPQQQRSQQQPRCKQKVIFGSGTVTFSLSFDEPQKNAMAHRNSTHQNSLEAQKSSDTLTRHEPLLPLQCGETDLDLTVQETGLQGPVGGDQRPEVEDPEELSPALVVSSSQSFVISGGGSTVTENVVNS
Assay: proximity ligation; deparaffinized sections of human parathyroid glands (normal donors) and parathyroid adenomas (PHPT patients with deficient or replete 25OHD); mouse monoclonal anti-GABAB1R N-terminus and rabbit polyclonal anti-CaSR N-terminus, Duolink in Situ Detection kit, Texas Red probes

For “type B γ-aminobutyric acid receptor 1 (GABAB1R) (from UniProt Q9UBS5 20-961)”, the binding was “binds”.
